Measured values from PubChem BioAssay AID540276 (National Center for Advancing Translational Sciences (NCATS), 2011).
Among all 300,000 compounds or so, about 5,400 (1.8%) were called active. Inconclusive means that the source gave no clear call. Such entries were picked first, then a sample of the others. The call rests on the fitted dose curve; tested in HEK293 cells. A potency beside an inconclusive call is a rough fit, not a confirmed value.

Test: qHTS for inhibitors of binding or entry into cells for Marburg Virus
Details: Marburg virus pseudotyped entry inhibition, cell reporter; activity change, negative = inhibition: at 37.8 µM (top of the series) unless noted
On the % scale 0 is the no-effect control and ±100 the full control effect; potency means the concentration at half of the fitted maximal effect.

Structure (SMILES) | Potency | activity change, negative = inhibition
COc1ccc(S(=O)(=O)NCc2cccnc2)cc1C(=O)N1CCCCC1 | inactive | 
Cc1ccc(C(=O)Nc2cc(C)c(OCC(=O)N3CCOCC3)c(C)c2)cc1 | inconclusive: 11.2 µM [inhibitor, single point] | 
C=CCn1c(O)c(C(CC)=Nc2cc(OC)ccc2OC)c(=O)[nH]c1=O | inconclusive: 11.6 µM [inhibitor, partial curve, poor fit] | 
O=C(CNc1cc(S(=O)(=O)N2CCCC2)ccc1OCC(F)(F)F)Nc1ccc(SC(F)F)cc1 | active: 8.2 µM | 
O=C(Cc1ccccc1)Nc1c(Cl)ccc2nsnc12 | inconclusive: 12.6 µM [activator, single point] | 
Cn1cc(CNCc2cnc3ccccn23)c(-c2ccc(Oc3ccccc3)cc2)n1 | inconclusive: 14.1 µM [inhibitor, partial curve, poor fit] | 
Cc1cc(C)c(CN2CCN(Cc3ccc(C)o3)C(CCO)C2)c(-n2cccn2)c1 (centres undefined) | inconclusive: 35.5 µM [inhibitor, single point] | 
O=C(CN1CCCC1=O)Nc1ccccc1 | inconclusive: 35.5 µM [activator, partial curve, poor fit] | 
CCOc1ccc(Cl)cc1/C=N/O | inactive | 
COCCCn1c(=N)c(C(=O)NCc2ccco2)cc2c(=O)n3ccccc3nc21 | active: 2.51 µM | 
O=c1nc(-c2ccccc2)c2ccccc2[nH]1 | inactive | 
CN(C)S(=O)(=O)c1cc(NC(=O)CN2CCN(c3ccc(O)cc3)CC2)ccc1Cl | inconclusive: 0.112 µM [inhibitor, full curve, poor fit] | 
COc1cc(NS(=O)(=O)c2ccc(NC(C)=O)cc2)cc(OC)c1 | inconclusive: 0.58 µM [inhibitor, full curve, poor fit] | 
Cc1cc(NC(=O)CSc2nc(N)c(NC(=O)c3ccc(F)c(F)c3)c(=O)[nH]2)no1 | inconclusive: 35.5 µM [activator, single point] | 
Cc1cccc(C)c1NC(=O)NCCc1c[nH]c2ccccc12 | inactive | 
Fc1cccc(NC(=S)Nc2ccc(Br)cc2)c1 | inactive | 
CCNc1ccc(P(=O)(c2ccccc2)c2ccccc2)cc1 | inconclusive: 2.51 µM [activator, partial curve, poor fit] | 
CC(=O)N1CCc2cc(S(=O)(=O)NCCC(=O)NC3CCCc4ccccc43)ccc21 (centres undefined) | inactive | 
O=C(O)C[C@H](SCc1ccc(C(=O)O)o1)C(=O)O | inactive | 
N#CC1=C(c2ccccc2)/C(=C/c2ccccc2)OC1=O | inconclusive: 35.5 µM [inhibitor, single point] | 
CNS(=O)(=O)c1cc(NC(=O)c2cncn2-c2ccccc2)ccc1C | inconclusive: 28.2 µM [inhibitor, partial curve, poor fit] | 

Four entries from above, tab-delimited.
Structure (SMILES)	Potency	activity change, negative = inhibition
CCNc1ccc(P(=O)(c2ccccc2)c2ccccc2)cc1	inconclusive: 2.51 µM [activator, partial curve, poor fit]	
CC(=O)N1CCc2cc(S(=O)(=O)NCCC(=O)NC3CCCc4ccccc43)ccc21 (centres undefined)	inactive	
O=C(O)C[C@H](SCc1ccc(C(=O)O)o1)C(=O)O	inactive	
N#CC1=C(c2ccccc2)/C(=C/c2ccccc2)OC1=O	inconclusive: 35.5 µM [inhibitor, single point]	

(continued)

Structure (SMILES) | Potency | activity change, negative = inhibition
O=S(=O)(c1ccc(Cl)cc1)c1snnc1-c1ccccc1 | active: 15.8 µM | 
CCOC(=O)N1CCN(Cc2nc3cc(NC(=O)c4ccccc4[N+](=O)[O-])ccc3n2C(C)C)CC1 | inconclusive: 3.55 µM [inhibitor, partial curve, poor fit] | 
CC1=[N+]([O-])C(C)(C)N(O)C1(C)C | inconclusive: 3.16 µM [inhibitor, single point] | 
Cc1ccccc1NC(=O)COC(=O)Cc1ccsc1 | inconclusive: 3.26 µM [activator, full curve, poor fit] | 
O=[N+]([O-])c1cccc(-c2csc(N/N=C/c3cccc(O)c3)n2)c1 | inconclusive: 3.16 µM [inhibitor, partial curve, poor fit] | 
COc1ccccc1NC(=O)COC(=O)c1oc2ccccc2c1C | inconclusive: 3.16 µM [inhibitor, single point] | 
CCOc1ccc(NC(=O)Nc2cccn(Cc3ccccc3)c2=O)cc1 | inactive | 
CCNc1cc(N2CCOCC2)nc(SC)n1 | inactive | 
COc1ccc(/C=N/NC(=O)c2c(C)nc3ccc(Br)cn23)cc1OC | inconclusive: 6.31 µM [inhibitor, single point] | 
COc1ccc(N2C(=O)CC(c3cc(OC)c(OC)c(OC)c3)CC2=O)cc1 | inconclusive: 10 µM [inhibitor, partial curve, poor fit] | 
O=S(=O)(c1ccccc1)N1CCN(c2nnc(-c3ccccc3)c3ccccc23)CC1 | inconclusive: 10 µM [inhibitor, partial curve, poor fit] | 
COC(=O)c1cc(C(=O)NC(C)C2CC3CCC2C3)cc([N+](=O)[O-])c1 (centres undefined) | inconclusive: 35.5 µM [inhibitor, partial curve, poor fit] | 
COc1ccc(-c2csc(NC(=O)c3ccc(C(C)(C)C)cc3)c2C(=O)O)cc1 | inconclusive: 1.12 µM [inhibitor, full curve, poor fit] | 
CCOC(=O)CN1C(=O)CN(c2ccc(C)cc2)C1=O | inactive | 
CCN1CCCC1CN(Cc1cc2ccc(C)cc2[nH]c1=O)C(=S)Nc1ccc(OC)cc1 (centres undefined) | inactive | 
COCCCNCCOCCOc1ccccc1-c1ccccc1 | inconclusive: 11.2 µM [inhibitor, partial curve, poor fit] | 
O=C(O)C1(S(=O)(=O)CCC(F)=C(F)F)CC1 |  | inconclusive: 18% [activator] [at 46.1 µM]
Cc1ccc(S(=O)(=O)N2CCCC2C(=O)OCc2nc3sc(C)c(C)c3c(=O)[nH]2)cc1 (centres undefined) | inconclusive: 3.98 µM [inhibitor, single point] | 
COc1cc(CNCCO)ccc1OC1CCCC1 | inconclusive: 32.6 µM [inhibitor, single point] | 
CC(=O)Nc1ccccc1C(=O)C(=O)Nc1ccc(C)c(C)c1 | inconclusive: 0.116 µM [activator, single point] | 
Cc1cccc(NC(=S)NC(C)C(c2ccccc2)N2CCN(C)CC2)c1C (centres undefined) | inconclusive: 35.5 µM [inhibitor, partial curve, poor fit] | 
OC(CN1CCN(c2ccccc2)CC1)c1ccc2c(c1)CCN2 (centres undefined) | inconclusive: 0.651 µM [inhibitor, single point] | 
